Two substances from PMC5824486 can be followed below.

By UniProt entry, the sequences of proteins in these tests, tags left out.
UniProt Q92826: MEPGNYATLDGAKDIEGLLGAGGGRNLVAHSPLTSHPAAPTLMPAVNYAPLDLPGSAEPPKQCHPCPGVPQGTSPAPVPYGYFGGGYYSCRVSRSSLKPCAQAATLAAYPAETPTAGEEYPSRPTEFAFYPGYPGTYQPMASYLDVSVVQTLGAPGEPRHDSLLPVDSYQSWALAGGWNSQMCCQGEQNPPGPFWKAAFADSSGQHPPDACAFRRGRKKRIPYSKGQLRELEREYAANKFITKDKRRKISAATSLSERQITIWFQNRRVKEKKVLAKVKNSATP
UniProt Q09472: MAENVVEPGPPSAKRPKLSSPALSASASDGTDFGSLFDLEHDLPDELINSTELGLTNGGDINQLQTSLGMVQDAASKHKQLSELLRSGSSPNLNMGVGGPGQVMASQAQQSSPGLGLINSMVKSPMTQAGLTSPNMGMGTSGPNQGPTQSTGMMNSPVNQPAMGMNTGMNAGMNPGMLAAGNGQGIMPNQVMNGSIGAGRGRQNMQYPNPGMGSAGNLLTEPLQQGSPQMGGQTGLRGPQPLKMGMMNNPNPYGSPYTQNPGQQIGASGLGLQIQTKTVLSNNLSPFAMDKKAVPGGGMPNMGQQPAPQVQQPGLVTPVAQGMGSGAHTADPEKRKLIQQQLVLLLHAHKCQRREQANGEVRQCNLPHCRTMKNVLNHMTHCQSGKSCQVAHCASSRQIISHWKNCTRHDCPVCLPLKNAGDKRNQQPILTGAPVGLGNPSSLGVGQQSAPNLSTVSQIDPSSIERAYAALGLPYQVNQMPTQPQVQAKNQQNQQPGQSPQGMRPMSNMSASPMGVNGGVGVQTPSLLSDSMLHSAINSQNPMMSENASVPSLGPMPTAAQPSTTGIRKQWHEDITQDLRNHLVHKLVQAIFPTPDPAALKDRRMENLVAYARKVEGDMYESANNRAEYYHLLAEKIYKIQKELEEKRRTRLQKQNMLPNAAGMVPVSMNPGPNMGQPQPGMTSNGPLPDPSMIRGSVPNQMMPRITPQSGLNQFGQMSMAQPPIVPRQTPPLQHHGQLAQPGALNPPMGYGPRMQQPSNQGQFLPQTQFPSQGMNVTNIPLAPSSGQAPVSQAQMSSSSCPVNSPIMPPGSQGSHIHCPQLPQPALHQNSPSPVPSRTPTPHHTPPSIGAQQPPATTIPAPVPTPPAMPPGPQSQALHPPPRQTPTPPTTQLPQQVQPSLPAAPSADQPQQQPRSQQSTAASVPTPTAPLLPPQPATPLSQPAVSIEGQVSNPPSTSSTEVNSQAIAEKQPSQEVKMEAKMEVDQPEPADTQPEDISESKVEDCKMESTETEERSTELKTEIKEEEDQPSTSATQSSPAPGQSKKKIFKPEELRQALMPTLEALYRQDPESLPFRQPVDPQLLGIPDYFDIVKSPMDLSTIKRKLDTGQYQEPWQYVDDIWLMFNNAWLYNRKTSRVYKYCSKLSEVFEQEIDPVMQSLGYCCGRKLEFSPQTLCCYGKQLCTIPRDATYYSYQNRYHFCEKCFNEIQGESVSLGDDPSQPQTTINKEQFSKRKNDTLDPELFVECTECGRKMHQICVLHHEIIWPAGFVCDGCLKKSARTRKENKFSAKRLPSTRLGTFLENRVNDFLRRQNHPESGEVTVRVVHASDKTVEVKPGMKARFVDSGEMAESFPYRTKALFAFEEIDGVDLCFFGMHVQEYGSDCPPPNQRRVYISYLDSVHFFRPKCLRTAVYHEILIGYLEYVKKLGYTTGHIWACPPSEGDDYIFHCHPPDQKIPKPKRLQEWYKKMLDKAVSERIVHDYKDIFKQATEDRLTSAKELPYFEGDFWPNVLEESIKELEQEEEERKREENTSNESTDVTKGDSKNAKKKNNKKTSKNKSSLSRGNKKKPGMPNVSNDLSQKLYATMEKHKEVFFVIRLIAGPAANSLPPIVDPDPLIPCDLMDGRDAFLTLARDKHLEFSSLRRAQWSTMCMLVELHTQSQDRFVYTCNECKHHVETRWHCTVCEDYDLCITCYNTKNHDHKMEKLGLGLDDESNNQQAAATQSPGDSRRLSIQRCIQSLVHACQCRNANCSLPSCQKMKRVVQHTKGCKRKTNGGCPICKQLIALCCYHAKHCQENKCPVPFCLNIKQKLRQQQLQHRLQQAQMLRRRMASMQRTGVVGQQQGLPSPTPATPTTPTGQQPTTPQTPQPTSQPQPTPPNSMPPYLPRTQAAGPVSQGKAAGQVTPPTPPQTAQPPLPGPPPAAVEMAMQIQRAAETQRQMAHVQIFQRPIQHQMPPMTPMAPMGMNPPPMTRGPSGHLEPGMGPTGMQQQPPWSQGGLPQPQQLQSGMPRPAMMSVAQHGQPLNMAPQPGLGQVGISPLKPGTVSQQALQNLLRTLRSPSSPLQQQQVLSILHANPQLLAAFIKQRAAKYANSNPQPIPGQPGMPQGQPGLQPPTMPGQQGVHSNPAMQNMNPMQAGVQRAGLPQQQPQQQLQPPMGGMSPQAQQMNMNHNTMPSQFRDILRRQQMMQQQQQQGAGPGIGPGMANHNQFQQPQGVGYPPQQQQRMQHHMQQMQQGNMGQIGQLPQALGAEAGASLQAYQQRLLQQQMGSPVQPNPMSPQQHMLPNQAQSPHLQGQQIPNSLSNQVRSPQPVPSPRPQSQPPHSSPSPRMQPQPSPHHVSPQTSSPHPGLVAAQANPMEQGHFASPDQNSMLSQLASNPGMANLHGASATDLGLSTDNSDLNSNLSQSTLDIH
UniProt P11142: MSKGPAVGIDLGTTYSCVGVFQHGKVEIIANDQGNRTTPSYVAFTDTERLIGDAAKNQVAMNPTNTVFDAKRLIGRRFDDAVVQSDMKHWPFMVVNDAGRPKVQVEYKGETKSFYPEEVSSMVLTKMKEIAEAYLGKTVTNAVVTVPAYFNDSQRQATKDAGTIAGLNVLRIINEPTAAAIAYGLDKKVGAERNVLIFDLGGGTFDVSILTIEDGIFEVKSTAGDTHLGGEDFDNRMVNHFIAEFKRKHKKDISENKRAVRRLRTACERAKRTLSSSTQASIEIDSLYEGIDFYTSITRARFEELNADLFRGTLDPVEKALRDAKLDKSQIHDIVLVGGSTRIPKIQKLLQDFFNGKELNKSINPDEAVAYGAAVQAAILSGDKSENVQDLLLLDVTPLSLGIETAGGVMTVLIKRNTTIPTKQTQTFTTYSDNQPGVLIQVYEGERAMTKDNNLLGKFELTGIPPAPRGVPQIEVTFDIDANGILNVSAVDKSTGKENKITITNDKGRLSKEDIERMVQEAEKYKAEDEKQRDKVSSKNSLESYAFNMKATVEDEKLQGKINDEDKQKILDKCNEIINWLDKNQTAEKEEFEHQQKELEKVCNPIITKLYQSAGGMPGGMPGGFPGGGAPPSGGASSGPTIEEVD

Results are given in words; binding and its absence hold for the method and conditions named. In cells and extracts the contact can be indirect. Some results given as binding are weak or reduced against the parent protein; the word gives no strength.

The target in assay [1] is HOXB13 (as in the Co-IP assays of Figures S3j and S4c; construct not told) (human) (UniProt Q92826). Put plainly: co-IP; Co-IP of p300 and HOXB13 (Figure S3j); cells, constructs and bait not given.
The target is the same in assay [2]. Briefly: co-IP; Co-IP of HOXB13 and HSC70 (Figure S4c), without overexpression of HBXIP; cells, constructs and bait not given.
The target is the same in assay [3]. Briefly: co-IP; Co-IP of HOXB13 and HSC70 (Figure S4c), cells with overexpression of HBXIP; cells, constructs and bait not given.

Regarding “acetylase p300 (from UniProt Q09472 1-2414) (enzyme)”, the binding result in assay [1] is “binds”.
As for “heat shock 70 kDa protein 8 (HSC70) (from UniProt P11142 1-646)”, the binding entry is “binds” in assay [2] and “no binding (condition: with overexpression of HBXIP)” in assay [3].
